No constants are given. Whether binding was seen depends on the method and setting. Some results given as binding are weak or reduced against the parent protein; the word gives no strength. Tags and fused reporters may be left off the sequences shown.

The assay addresses T1, CEH-14 (C. elegans) (UniProt P20271).
T1 sequence: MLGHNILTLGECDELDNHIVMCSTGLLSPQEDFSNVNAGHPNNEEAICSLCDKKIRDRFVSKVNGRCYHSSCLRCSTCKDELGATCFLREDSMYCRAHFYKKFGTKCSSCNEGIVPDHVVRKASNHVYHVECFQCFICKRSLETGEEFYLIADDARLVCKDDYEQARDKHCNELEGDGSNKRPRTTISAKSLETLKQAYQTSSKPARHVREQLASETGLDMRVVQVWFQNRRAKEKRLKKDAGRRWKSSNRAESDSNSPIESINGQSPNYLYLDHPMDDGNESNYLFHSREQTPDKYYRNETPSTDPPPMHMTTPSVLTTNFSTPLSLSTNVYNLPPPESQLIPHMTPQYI
Briefly: two-hybrid; direct assays: Gal4AD-TF prey plasmids transformed into the haploid Gal4DB-TF bait strain (MaV103); beta-galactosidase assay on overlay filter membranes and growth on selective plates plus 20, 40 or 60 mM 3-AT; individual yeast transformant colonies scored.

B1: AD-CEH-63(whole) (protein, UniProt A3FPJ2 1-152)
chain: MTSKTNMTSNKFAYDFFPWSNDTNSSQQIKNIKPPPKRSNRPTKRTTFTSEQVTLLELEFAKNEYICKDRRGELAQTIELTECQVKTWFQNRRTKKRRCTSPLRKSMMKKSDERSPSPQNPSSQHVQNLQTFFHSWPSHFAYSLPSDQQNNV
As to B1, the binding entry is recorded as “binds”.

B2: CEH-14 (protein, UniProt P20271 1-351)
chain: T1 sequence
Consider B2, for which the binding entry is given as “binds”.

Values taken from publication PMC3271191.
